The values below come from patent US5994504.

Chains of the proteins cited; added tags and fusions are not shown. Chains listed by the source or under a name are the forms on record and can include a tag or linker.
VDR-RXRalpha heterodimer (Homo sapiens), one chain, as listed by the source, chain 2 of 2: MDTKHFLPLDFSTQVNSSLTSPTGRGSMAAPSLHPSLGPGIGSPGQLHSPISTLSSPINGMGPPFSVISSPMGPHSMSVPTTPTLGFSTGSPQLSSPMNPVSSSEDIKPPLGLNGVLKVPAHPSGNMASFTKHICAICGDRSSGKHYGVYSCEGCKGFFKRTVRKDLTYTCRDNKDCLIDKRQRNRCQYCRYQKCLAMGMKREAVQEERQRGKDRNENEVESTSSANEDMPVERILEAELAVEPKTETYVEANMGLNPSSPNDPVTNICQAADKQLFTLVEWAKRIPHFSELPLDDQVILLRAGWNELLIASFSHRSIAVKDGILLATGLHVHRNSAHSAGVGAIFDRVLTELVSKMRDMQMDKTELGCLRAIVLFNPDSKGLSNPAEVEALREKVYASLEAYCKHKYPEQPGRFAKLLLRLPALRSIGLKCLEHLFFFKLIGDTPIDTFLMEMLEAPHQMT
VDR-RXRalpha heterodimer (Homo sapiens), one chain, as listed by the source, chain 1 of 2: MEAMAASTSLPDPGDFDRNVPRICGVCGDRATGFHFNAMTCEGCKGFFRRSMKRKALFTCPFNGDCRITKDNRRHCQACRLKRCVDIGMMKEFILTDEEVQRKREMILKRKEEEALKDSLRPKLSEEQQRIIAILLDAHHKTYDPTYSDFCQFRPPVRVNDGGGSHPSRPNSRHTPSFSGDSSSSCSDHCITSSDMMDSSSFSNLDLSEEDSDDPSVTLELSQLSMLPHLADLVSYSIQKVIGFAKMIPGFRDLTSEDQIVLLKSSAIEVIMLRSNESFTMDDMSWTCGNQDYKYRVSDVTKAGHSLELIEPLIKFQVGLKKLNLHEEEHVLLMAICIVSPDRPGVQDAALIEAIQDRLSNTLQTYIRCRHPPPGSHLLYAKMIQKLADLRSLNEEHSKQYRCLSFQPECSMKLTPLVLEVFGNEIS

At least one result comes from cells or an extract, where the contact may be indirect. For part of these data: Construct, isoform or probe ends are uncertain for at least one entry. For part of these data: Negatives hold for the conditions tested.

Holding throughout (test): EMSA
For orientation: Mobility shift assays separate free from complexed probe on a gel.

Series [1] has as its system VDR-RXR heterodimer, endogenous (B95-8 nuclear extract). The settings on record: protein in an extract, protein details: vitamin D-resistant B95-8 nuclear extract, label: 32P.
The test system of series [2] is VDR-RXR heterodimer, endogenous (MLA-144 nuclear extract). The settings on record: protein in an extract, protein details: 1,25-(OH)2D3-treated OWP cell nuclear extract, label: 32P.
In series [3] the test system is VDR-RXRalpha heterodimer (Homo sapiens). The settings on record: protein in a lysate after overexpression, protein details: yeast (S. cerevisiae) expressed extracts, label: 32P.
Where [4] appears, read: results stated identical to opVDRE.

As to “GGGTGAACGGGGGCA (double strand) [human osteocalcin VDRE (ocVDRE)]”, the values for the binding result in series [1] (setting [4]), in series [2] (setting [4]) and in series [3] (setting [4]) were “no binding”, “binds” and “binds”, respectively.

On to “GGTTCACGAGGTTCA (double strand) [mouse osteopontin VDRE (opVDRE)]”, for which the binding result is “no binding” in series [1] (no VDR-RXR band, with or without 100 nM 1,25-(OH)2D3, inhibitory factor present); “binds” in series [2] (1,25-(OH)2D3-treated cells); “binds” in series [3] (complex inhibited by B95-8 nuclear extract).
